From US20220308045A1, “EXPANDABLE LIVER ORGANOIDS, MEDIA COMPOSITION FOR DIFFERENTIATION THEREOF, AND METHOD FOR PRODUCING LIVER ORGANOIDS USING THE SAME” (KOREA RESEARCH INSTITUTE OF BIOSCIENCE AND BIOTECHNOLOGY, priority 2019, published 2022)

Tested on: CYP3A4

Structure (SMILES): COC(=O)C1=C(C)NC(C)=C(C(=O)OC)C1c1ccccc1[N+](=O)[O-] [nifedipine]
- expression amount of CYP3A4 on induction: significantly increased
